“And” between values parts separate entries of the source, which are not always exact repeats. Identical values can stand only once. At least one structure is not confirmed: it was looked up by name or label, or the drawing left a doubt.
What was measured:
[1] = test system: Ba/F3 cells stably expressing HER2 mutations (exons 19, 20, 21); test: Ba/F3 HER2 mutant cell viability (Cell Titer Glo) TKI screen; format: cell-based; details: 72 hours
Protocol: Briefly, stable Ba/F3 cell lines were generated by retroviral transduction of Ba/F3 cell line for 12 hours. […] Three days after transduction, 2 μg/ml puromycin (Invitrogen) was added to the RPMI media. After 5 days of selection, cells were stained with FITC-HER2 (Biolegend) sorted by FACS. Cell lines were then grown in the absence of IL-3 for two weeks and cell viability was assessed every three days using the Cell Titer Glo assay (Progema).
Briefly, 2000-3000 cells per well were plated in 384-well plates (Greiner Bio-One) in technical triplicate. Cells were treated with seven different concentrations of tyrosine kinase inhibitors or vehicle alone at a final volume of 40 μL per well. After 3 days, 11μL of Cell Titer Glo was added to each well. Plates were shaken for 15 minutes, and bioluminescence was determined using a FLUOstar OPTIMA multi-mode micro-plate reader (BMG LABTECH). Bioluminescence values were normalized to DMSO treated cells, and normalized values were plotted in GraphPad Prism using non-linear regression fit to normalized data with a variable slope.

[2] = test system: patients with exon 20 insertion positive NSCLC; details: two separate studies; cited from earlier work
[3] = test system: CW-2 colorectal cell xenograft (HER2 L755S); test: CW-2 xenograft mouse model; format: in vivo, nu/nu nude mice; details: 20 mg/kg, 5 days/week
Protocol: In vivo xenograft studies: CW-2 cell line xenografts were created by injecting 1×10^6 cells in 50% matrigel into 6 week old female nu/nu nude mice. When tumors reached 350 mm^3 mice were randomized into 4 groups: 20 mg/kg afatinib, 5 mg/kg poziotinib, 30 mg/kg neratinib, or vehicle control (0.5% Methylcellulose, 2% Tween-80 in dH2O). Tumor volumes were measured three times per week. Mice received drug Monday-Friday (5 days per week), but began dosing on Wednesday allowing for a 2 day holiday after the first 3 days of dosing.

Row | SMILES | inhibitory activity for HER2 mutants across all three exons ([1]; exons 19, 20, 21) | response rate [2] | effect on tumor growth compared to vehicle control [3] | activity against cells expressing D769 variants ([1]; HER2 D769 variants) | inhibiting cell viability in cells expressing exon 20 mutations ([1]; HER2 exon 20 mutations)
1 | CN(C)C/C=C/C(=O)Nc1cc2c(Nc3ccc(F)c(Cl)c3)ncnc2cc1O[C@H]1CCOC1 [afatinib] | had inhibitory activity | 18.2% and 18.8% | did not significantly affect tumor growth | – | –
2 | C=CC(=O)N1CCC[C@@H](n2nc(-c3ccc(Oc4ccccc4)cc3)c3c(N)ncnc32)C1 [ibrutinib] | – | – | – | did demonstrate activity | not effective

Reference: US12629375B2, “Compounds with anti-tumor activity against cancer cells bearing HER2 exon 21 insertions” (Board of Regents, The University of Texas System, priority 2019, dated 2026)
